# Values from PubChem BioAssay AID1159508 (Drosophila RNAi Screening Center, 2015)
# Screen: 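Overall cell fitness after RNAi as a quality check of the library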
# Cells: Drosophila S2R+ cells
# Reagent: long dsRNA against Drosophila genes
# Time to read-out: 5 days
# Measured: 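Luminescent ATP signal as a proxy for cell fitness after 5 days of RNAi, given as a z-score in each replicate and averaged over replicates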
# Scale: mean ATP z-score and ATP z-score: higher = more total ATP luminescence
# Active means: In these data the active calls have mean ATP z-score at about -2 or lower, or at about 2 or higher
# Meaning of the calls: active = strong ATP change (up or down); inactive = no strong ATP change
# In all, the deposit lists 812 reagents; below is a part drawn at random. 18 of all reagents (2.2%) count as active. 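Calls include both increased and decreased ATP; roughly one in four reagents has no third replicate value.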 Entries without a mark were called inactive. Further read-outs or replicates are left out here. Not stated in the record: the amount of reagent.
predicted target,amplicon,mean ATP z-score,"ATP z-score, replicate 1","ATP z-score, replicate 2"
CG30122 (GeneID 37146),DRSC34694,-0.644,-1.37,-0.558
CG30122 (GeneID 37146),DRSC34695,0.222,-0.511,0.544
hoip (GeneID 44173),DRSC03546,-2.82 (active),-2.71,-2.63
hoip (GeneID 44173),DRSC31857,-2.75 (active),-2.66,-2.64
Caper (GeneID 33989),DRSC02137,0.766,0.645,0.705
Caper (GeneID 33989),DRSC42661,-0.68,-0.783,-0.77
Larp4B (GeneID 38399),DRSC29411,1.16,0.152,0.215
Larp4B (GeneID 38399),DRSC32812,-0.165,-0.49,-0.194
CG1316 (GeneID 38526),DRSC08304,-1.06,-1.43,-0.928
CG1316 (GeneID 38526),DRSC42685,0.784,0.649,0.735

Continued, starting with the last 3 of the part before.
predicted target,amplicon,mean ATP z-score,"ATP z-score, replicate 1","ATP z-score, replicate 2"
Larp4B (GeneID 38399),DRSC32812,-0.165,-0.49,-0.194
CG1316 (GeneID 38526),DRSC08304,-1.06,-1.43,-0.928
CG1316 (GeneID 38526),DRSC42685,0.784,0.649,0.735
hfp (GeneID 38173),DRSC25143,-1.93,-2.01,-1.92
hfp (GeneID 38173),DRSC31973,-1.1,-1.12,-1.07
CG10466 (GeneID 35268),DRSC02060,0.282,0.0384,0.306
CG10466 (GeneID 35268),DRSC42670,-0.333,-0.628,-0.312
nonA-l (GeneID 42026),DRSC17017,0.497,0.397,0.498
nonA-l (GeneID 42026),DRSC25387,0.875,0.371,0.865
loqs (GeneID 34751),DRSC02997,0.075,-0.138,0.1
loqs (GeneID 34751),DRSC42666,-0.0508,-0.13,-0.0847
vas (retired record) (GeneID 34884),DRSC22007,0.448,0.237,0.601
vas (retired record) (GeneID 34884),DRSC40771,0.0583,-0.128,-0.0527
abs (GeneID 40530),DRSC12372,0.453,0.00382,0.557
abs (GeneID 40530),DRSC31883,0.151,-0.178,-0.0626
